Results from patent US20140227280A1 (CENTRE NATIONAL DE LA RECHERCHE SCIENTIFIQUE, published 2014).
No constants are given. Whether binding was seen depends on the method and setting. Binding seen in cells or lysates may run through a third protein. Some binding calls cover weakened binding; strength is not graded here.

What was measured:
[1] = target: mouse MCM9 protein (mouse); assay: co-immunoprecipitation (summary in the example's discussion)
[2] = target: mouse MCM9 protein (mouse); assay: co-immunoprecipitation (summary in the example's introduction)
[3] = target: mouse MCM9 protein (mouse); assay: co-immunoprecipitation from mouse testes extracts (legend of FIGS. 18A-C)
[4] = target: mouse MCM9 protein (mouse); assay: reciprocal co-immunoprecipitation from mouse testes extracts, western blot

binding [1]: binds
binding [2]: binds
binding [3]: binds
binding [4]: binds
B1: mouse MCM8 protein (other)
chain: MSGAYRGRGFGRGRFQSWKRGRGGGNFSGRWRERENRVDLNEASGKHASAQASQPLLQQSTLDQFIPYKGWKLYFSEVYSNNSPFIEKIQAFEKFFTRHIDLYDKDEIERKGSILVDFKELTKADEITNLIPDIENALRDAPEKTLACMGLAIHQVLTKDLERHAAELQAQEGLSNGGETMVNVPHIYARVYNYEPLTHLKNIRATCYGKYISIRGTVVRVSNIKPLCTNMAFQCAACGEIQSFPLPDGKYTLPTKCPVPACRGRSFAPLRSSPLTVTLDWQLIKIQELMSDAQREAGRIPRTIECELVHDLVDSCVPGDTVTVTGIVKVSNSEEGSRNKNDKCMFLLYIEANSVSNSKGPKAQTAEDGCKHGTLMEFSLKDLYAIREIQAEENLLKLVVNSLCPVIFGHELVKAGLTLALFGGSQKYADDKNRIPIRGDPHVLIVGDPGLGKSQMLQAACNVAPRGVYVCGNTTTSSGLTVTLSKDSSSGDFALEAGALVLGDQGICGIDEFDKMGNQHQALLEAMEQQSISLAKAGVVCSLPARTSIVAAANPVGGHYNKARTVSENLKMGSALLSRFDLVFILLDTPNEQHDHLLSEHVIAIRAGKQKAVSSATVTRVLSQDSNTSVLEVVSEKPLSERLKVAPGEQTDPIPHQLLRKYIGYARQYVHPRLSTDAAQALQDFYLELRKQSQRVGSSPITTRQLESLIRLTEARARLELREEATREDAEDIIEIMKHSMLGTYSDEFGNLDFERSQHGSGMSNRSTAKRFISALNSIAERTYNNIFQYHQLRQIAKELNIQVADFENFIGSLNDQGYLLKKGPKIYQLQTM
notes: Endogenous protein in mouse testes extracts and MEF cell extracts
